{
  "source": "paper PMC8560896",
  "about": "(Frontiers in Chemistry, 2021)",
  "key": {"[1]": {"assay": "Cupric ion reducing antioxidant capacity (CUPRAC)", "settings": "Supplementary Table 1; molar absorptivity in CUPRAC test", "protocol": "The CUPRAC test was performed as reported by [Ozyürek et al. (2008)] on the new compounds in the unacetylated form.\nCuCl2 solution 10 mM, was prepared by dissolving […] CuCl2 in water, and diluting to 250 ml. Neocuproine (Nc) solution 7.5 mM, was prepared by dissolving 15 mg of neocuproine in 10 ml of absolute EtOH. Ammonium acetate 1.0 M was prepared by dissolving 19.27 g of NH4Ac in 250 ml of water. The cyclodextrin (2% M-β-CD) stock solution was prepared in water-acetone (9:1 v/v). The standard solution of Trolox 1 mM was prepared in 2% M-β-CD. All working solutions of antioxidant 1 mM were freshly prepared in 2% M-β-CD.\n1 ml of Cu(II) + 1 ml of Nc + 1 ml of NH4Ac buffer + x mL of antioxidant solution + (1.1 − x) 2% M-β-CD in 1:9 water–acetone mixture (v/v); total volume = 4.1 ml, measure A 450 against a reagent blank after 40 min of reagent addition at room temperature.\nThe Trolox equivalent antioxidant capacity (TEAC) is defined as the millimolar concentration of a Trolox solution having the antioxidant capacity equivalent to a 1.0 mM solution of the substance under investigation. The […] values were simply calculated by dividing the molar absorptivity ε of the species under investigation by that of Trolox under corresponding conditions. The concentration linearity ranges for all the antioxidants tested are reported in the Supplementary Material (See Supplementary Table S1)."}, "SH-SY5Y cells": {"test_system": "SH-SY5Y cells", "assay": "MTT cell viability assay", "assay_type": "cell-based, human", "settings": "ratio between the IC50 value and the concentration with more antioxidant activity", "text": "The MTT test is based on the observation that live cells can reduce the water-soluble yellow tetrazolium salt [3-(4,5-dimethylthiazol-2-yl)-2,5-diphenyltetrazolium bromide] into water-insoluble blue/magenta formazan crystals, by dehydrogenase of the active mitochondria. Dissolved formazan crystals can be quantified using a spectrophotometer and the values obtained are in direct correlation to the number of metabolically active cells. For this reason, this colorimetric assay is used to evaluate cell viability.\nThe MTT assay was performed as reported in literature ([Corasaniti et al., 2007]). […].\nThe optical density was measured at wavelengths of 540 and 690 nm using a spectrophotometer (X MARK Spectrophotometer Microplate Bio-Rad)."}},
  "data": [
    {"smiles": "O=C(OCCc1ccc(O)c(O)c1)C1CCN(Cc2ccccc2)CC1", "note": "[HT1]", "values": [
      {"measurement": "ε", "setting": "[1]", "result": "0,0447 L mol−1 cm−1"}
    ]},
    {"smiles": "CC(=O)Oc1ccc(CCOC(=O)C2CCN(Cc3ccccc3)CC2)cc1OC(C)=O", "note": "[HT1a]", "values": [
      {"measurement": "Therapeutic index", "setting": "SH-SY5Y cells", "result": 50}
    ]},
    {"smiles": "O=C(OCCc1cc(O)c(O)cc1[N+](=O)[O-])C1CCN(Cc2ccccc2)CC1", "note": "[HT2]", "values": [
      {"measurement": "ε", "setting": "[1]", "result": "0,0369 L mol−1 cm−1"},
      {"measurement": "Therapeutic index", "setting": "SH-SY5Y cells", "result": 50}
    ]},
    {"smiles": "COc1cc(CCOC(=O)C2CCN(Cc3ccccc3)CC2)ccc1O", "note": "[HT3]", "values": [
      {"measurement": "ε", "setting": "[1]", "result": "0,0239 L mol−1 cm−1"},
      {"measurement": "Therapeutic index", "setting": "SH-SY5Y cells", "result": 25}
    ]},
    {"smiles": "COc1cc(CCOC(=O)C2CCN(Cc3ccccc3)CC2)ccc1OC(C)=O", "note": "[HT3a]", "values": [
      {"measurement": "Therapeutic index", "setting": "SH-SY5Y cells", "result": 10}
    ]},
    {"smiles": "O=C(OCCc1ccc(O)cc1)C1CCN(Cc2ccccc2)CC1", "note": "[HT4]", "values": [
      {"measurement": "ε", "setting": "[1]", "result": "0,0132 L mol−1 cm−1"},
      {"measurement": "Therapeutic index", "setting": "SH-SY5Y cells", "result": 50}
    ]},
    {"smiles": "CC(=O)Oc1ccc(CCOC(=O)C2CCN(Cc3ccccc3)CC2)cc1", "note": "[HT4a]", "values": [
      {"measurement": "Therapeutic index", "setting": "SH-SY5Y cells", "result": 40}
    ]},
    {"smiles": "OCCc1ccc(O)c(O)c1", "note": "[HT, hydroxytyrosol, reference compound]", "values": [
      {"measurement": "ε", "setting": "[1]", "result": "0,0375 L mol−1 cm−1"}
    ]},
    {"smiles": "Cc1c(C)c2c(c(C)c1O)CCC(C)(C(=O)O)O2", "note": "(stereo not drawn) [Trolox, reference compound]", "values": [
      {"measurement": "ε", "setting": "[1]", "result": "0,0133 L mol−1 cm−1"}
    ]}
  ]
}
